From patent US7989464B2, “mGluR1 antagonists as therapeutic agents” (Schering Corporation, priority 2004, dated 2011) come the findings set out here.

Amino acid sequences for entries named in this document (tags omitted). Residues count along the entry.
UniProt Q13255, 19-1194 limits assumed: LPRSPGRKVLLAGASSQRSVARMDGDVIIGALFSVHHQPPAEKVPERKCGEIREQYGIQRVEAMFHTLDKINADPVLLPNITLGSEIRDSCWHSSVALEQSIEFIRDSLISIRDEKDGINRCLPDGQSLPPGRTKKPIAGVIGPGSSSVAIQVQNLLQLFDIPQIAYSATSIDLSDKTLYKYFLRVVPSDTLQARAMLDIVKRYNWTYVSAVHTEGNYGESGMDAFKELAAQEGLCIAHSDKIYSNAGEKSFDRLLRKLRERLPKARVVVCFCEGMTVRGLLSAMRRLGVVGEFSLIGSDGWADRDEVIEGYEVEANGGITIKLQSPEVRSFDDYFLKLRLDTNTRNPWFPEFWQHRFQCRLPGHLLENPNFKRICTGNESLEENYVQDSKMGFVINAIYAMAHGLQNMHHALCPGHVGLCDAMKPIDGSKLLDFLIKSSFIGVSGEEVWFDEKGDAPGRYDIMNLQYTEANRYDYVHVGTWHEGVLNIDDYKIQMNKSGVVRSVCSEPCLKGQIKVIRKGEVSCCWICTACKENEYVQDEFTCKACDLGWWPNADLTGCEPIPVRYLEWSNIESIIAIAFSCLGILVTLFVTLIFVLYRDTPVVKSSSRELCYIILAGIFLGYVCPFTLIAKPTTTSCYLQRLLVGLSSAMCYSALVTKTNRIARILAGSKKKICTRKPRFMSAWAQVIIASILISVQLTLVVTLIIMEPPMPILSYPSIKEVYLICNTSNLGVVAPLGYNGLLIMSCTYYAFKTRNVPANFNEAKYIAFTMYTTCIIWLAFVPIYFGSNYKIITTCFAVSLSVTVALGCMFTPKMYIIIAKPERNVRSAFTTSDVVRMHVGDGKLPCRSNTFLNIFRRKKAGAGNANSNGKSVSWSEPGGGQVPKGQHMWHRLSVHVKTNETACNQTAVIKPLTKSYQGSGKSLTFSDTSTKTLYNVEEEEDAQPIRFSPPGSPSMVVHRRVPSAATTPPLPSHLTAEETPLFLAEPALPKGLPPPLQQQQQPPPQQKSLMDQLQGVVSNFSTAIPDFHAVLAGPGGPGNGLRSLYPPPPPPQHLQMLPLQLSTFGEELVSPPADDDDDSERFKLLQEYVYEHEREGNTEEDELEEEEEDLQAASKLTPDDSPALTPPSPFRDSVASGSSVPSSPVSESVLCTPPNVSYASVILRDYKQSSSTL

Structures were worked out from names or drawings and are uncertain. Some results are limits rather than exact numbers.

For this assay, the target named is hmGluR1 receptor (Homo sapiens, UniProt Q13255). Put plainly: IC50 determination: intracellular calcium mobilization (FLIPR) upon Quisqualate stimulation in CHO cells stably expressing hmGluR1. It is filed as cell-based. The conditions noted are these: read-out: mGIuR 1 IC50, against Quisqualate 1 μM (EC80), class symbols. Background: Calcium assays in cells follow changes in intracellular calcium, usually with a dye or a luminescent sensor.

The term IC50 denotes the point on the concentration scale where inhibition reaches its midpoint. As to `Cc1ccnc2sc3c(=O)n(C4CCCCC4)cnc3c12`, the IC50 is over 1 µM.
As for `O=c1c2sc3nccc(-n4cccc4)c3c2ncn1C1CCCCC1`, the IC50 was in the range of 0.05 to 0.15 µM.
With `CC(C)c1ccnc2sc3c(=O)n(C4CCCCC4)cnc3c12`, the IC50 is under 0.05 µM.
